PubChem BioAssay AID1224830 | NIAID | 2016
This is an unselected part of about 18,000 reagents. Of all reagents, about 2,900 (16%) were called active. 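Calls are made per well; low scores hint the gene aids the LPS response, high scores that it dampens it.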 Entries without a mark were called inactive. Repeated entries: four replicate wells of each siRNA pool.

Screen: 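Regulators of TLR4 signalling towards TNF-alpha in macrophage-like cells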 (primary screen)
Cell system: human THP-1 monocytic leukaemia cells, TNF dual-luciferase reporter clone, PMA-differentiated to macrophage-like cells
Knock-down reagent: siRNA pool against human genes, 50 nM
Duration: LPS for 4 h, given about 3 days after siRNA transfection
Challenge: bacterial LPS (TLR4 ligand), 10 ng/ml
Detection: 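TNF firefly reporter luminescence divided by renilla, normalised to the plate median, then turned into a robust z-score for each replicate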
Scale: TNF reporter robust z-score: higher = stronger TNF reporter response to LPS
Rule for the call: 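a well is active when its z-score exceeds 2.8 or falls below -1.5; control wells carry no call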

Gene | TNF reporter robust z-score
TMCO5A | -1.98 (active)
TMCO5A | -1.12
TMCO5A | -0.93
TMCO5A | -1.39
BUB1 | 0.41
BUB1 | 0.01
BUB1 | 0.67
BUB1 | 0.82
USP30 | -0.76
USP30 | -1.46
USP30 | -0.94
USP30 | -0.04
OCIAD2 | 0.12
OCIAD2 | -0.54
OCIAD2 | 1.73
OCIAD2 | -0.84

No new results follow: an excerpt of the list.
Gene | TNF reporter robust z-score
USP30 | -1.46
USP30 | -0.94
USP30 | -0.04
OCIAD2 | 0.12
OCIAD2 | -0.54
OCIAD2 | 1.73
OCIAD2 | -0.84

Continued:
Gene | TNF reporter robust z-score
SH3GL3 | -0.62
SH3GL3 | 0.92
SH3GL3 | 1.17
SH3GL3 | 2.02
PTX3 | 0.64
PTX3 | 0.94
PTX3 | 0.16
OPN1MW2 | 0.11
OPN1MW2 | 1.35
OPN1MW2 | 0.43
PCOLCE2 | -0.68
PCOLCE2 | -0.83
PCOLCE2 | -0.14
PCOLCE2 | -0.05
LYSMD1 | 0.88
LYSMD1 | 2.98 (active)
LYSMD1 | 1
LYSMD1 | 1.95
TASP1 | -0.84
TASP1 | -0.23
TASP1 | -1.56 (active)
TASP1 | 0.94
ADAMTS14 | -0.11
ADAMTS14 | -0.24
ADAMTS14 | 1.22
ADAMTS14 | 2.87 (active)
PARVB | 0.56
PARVB | 0.71
PARVB | -0.59
